The results in this text go back to US20020164716A1.

Protein sequences, listed by entry. Tags and fused reporters are not part of them. Residues count along the entry.
UniProt P19438, residues 355-442: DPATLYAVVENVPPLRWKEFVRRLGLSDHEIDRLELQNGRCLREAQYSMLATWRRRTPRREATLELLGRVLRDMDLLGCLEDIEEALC

These are yes or no findings as the source states them, for the method shown. In cells and extracts the contact can be indirect. Some binding calls cover weakened binding; strength is not graded here.

This experiment has as its target TNF-R1-DD expressed as a GST fusion protein (UniProt P19438). Description: pull-down on glutathione beads, Western blot with anti-MBP antibody. (Immunoblotting shows a protein as a band on a membrane.)

Consider “MBP fusion protein containing 27TU (from UniProt Q8WXG6 1002-1647)”, for which the binding entry is reported as “binds”.
